Source: article PMC6297230, “Structural basis of meiotic telomere attachment to the nuclear envelope by MAJIN-TERB2-TERB1” (Nature Communications, 2018)
No constants are given. Whether binding was seen depends on the method and setting. Binding calls can cover weak binding; strength is not graded here. For some assays here: Binding seen in cells or lysates may run through a third protein. Each block holds one binder with its values, some of them ahead of it.

Key:
[1] = target: MAJIN_(Core+BP1)–TERB2–TERB1_(TRFB) complex harbouring the TERB1 T648E mutation (human); assay: SEC; purified MAJIN(Core+BP1)-TERB2–TERB1(TRFB) complex, WT or T648E, incubated with a stoichiometric amount of TRF1 TRFH; elution profiles; both purified
[2] = target: MBP-fusion MAJINΔTM-TERB2–TERB1_(TRFB) complex (human); assay: pull-down; amylose resin; MBP-fusion MAJINΔTM–TERB2–TERB1 complex (2 µM), with or without pre-incubation with plasmid dsDNA (20 µM per base pair), then TRF1 TRFH (4 µM); 20 mM Tris pH 8.0, 250 mM KCl, 10 mg/ml BSA, 4 °C; both purified
[3] = target: MAJIN N-terminal structural core (amino acids 1–112) (human); assay: SEC-SAXS; purified complexes at > 10 mg/ml on Superdex 200 Increase 10/300 GL in 20 mM Tris pH 8.0, 250 mM KCl; ab initio, rigid body and multi-phase modelling; both purified
[4] = target: MAJIN N-terminal structural core (amino acids 1–112) (human); assay: crystal structure; MAJIN 1-112 with TERB2 168-220, selenomethionine derivative, SAD, spacegroup P3_(2)21, 2.90 Å; 2:2 heterotetramer in the asymmetric unit; co-expressed and co-purified complex; both purified
[5] = target: MAJIN core, truncated (amino acids 1–106) (human); assay: SEC-SAXS; purified complexes at > 10 mg/ml on Superdex 200 Increase 10/300 GL in 20 mM Tris pH 8.0, 250 mM KCl; ab initio, rigid body and multi-phase modelling; both purified
[6] = target: MAJINΔTM (amino acids 1–233) (human); assay: as above
[7] = target: MAJIN core, truncated (amino acids 1–106) (human); assay: crystal structure; MAJIN 1-106 with TERB2 168-207, molecular replacement, spacegroup C222_(1), 1.85 Å; 2:2 heterotetramer in the asymmetric unit; co-expressed and co-purified complex; both purified

- binding [1]: binds
- binding [2]: binds
B1: TRF homology domain of TRF1 (amino acids 62–268) (domain or fragment, human, UniProt P54274 62-268, looked up)
chain: EDAGLVAEAEAVAAGWMLDFLCLSLCRAFRDGRSEDFRRTRNSAEAIIHGLSSLTACQLRTIYICQFLTRIAAGKTLDAQFENDERITPLESALMIWGSIEKEHDKLHEEIQNLIKIQAIAVCMENGNFKEAEEVFERIFGDPNSHMPFKSKLLMIISQKDTFHSFFQHFSYNHMMEKIKSYVNYVLSEKSSTFLMKAAAKVVESKR
notes: Dimer by SEC-MALS; also called TRF1_(TRFH); source: E. coli BL21 (DE3), purified (Ni-NTA, amylose, ion exchange, SEC; 10% glycerol, room temperature)

- binding [3]: binds
- binding [4]: binds
B2: TERB2 C-terminus (amino acids 168–220) (domain or fragment, UniProt Q8NHR7 168-220)
chain: PVNNMVTGYISIDAMKKFLGELHDFIPGTSGYLAYHVQNEINMSAIKNKLKRK

- binding [5]: binds
- binding [6]: binds
- binding [7]: binds
Binder: PVNNMVTGYISIDAMKKFLGELHDFIPGTSGYLAYHVQNE (domain or fragment, UniProt Q8NHR7 168-207) [TERB2 C-terminus, truncated (amino acids 168–207)]

- binding [3]: binds
B3: full length TERB2 (1–220) (protein, UniProt Q8NHR7 1-220)
chain: MFQGQRGWFCGSVSQDLRQFWVAEGGTISDPRAADFLFSCDASHPDTLRIYQSLDYIEDNATVFHAYYLSAVANAKIKNSVALGHFILPPACLQKEIRRKIGSFIWEQDQHFLIEKHDEVTPNEIKTLRENSELATEHKKELSKSPEKHFIRTPVVEKQMYFPLQNYPVNNMVTGYISIDAMKKFLGELHDFIPGTSGYLAYHVQNEINMSAIKNKLKRK
